This is one part of the list.

The chains behind the UniProt entries cited, without tags or fusion partners. Where a name states a change or a piece, a line headed by the entry shows the natural chain unless it says otherwise.
UniProt Q12887: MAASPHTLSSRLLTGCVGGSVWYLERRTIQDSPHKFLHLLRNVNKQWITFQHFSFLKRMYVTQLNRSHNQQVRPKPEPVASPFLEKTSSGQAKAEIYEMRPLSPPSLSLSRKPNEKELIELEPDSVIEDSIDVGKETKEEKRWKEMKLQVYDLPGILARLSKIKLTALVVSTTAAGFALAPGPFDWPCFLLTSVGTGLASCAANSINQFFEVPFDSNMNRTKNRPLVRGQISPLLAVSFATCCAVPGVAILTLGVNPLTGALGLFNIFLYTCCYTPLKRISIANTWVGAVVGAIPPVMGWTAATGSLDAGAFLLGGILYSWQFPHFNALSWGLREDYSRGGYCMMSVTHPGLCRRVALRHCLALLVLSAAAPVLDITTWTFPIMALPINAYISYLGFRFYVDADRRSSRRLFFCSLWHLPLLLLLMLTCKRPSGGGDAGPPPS
UniProt Q14061: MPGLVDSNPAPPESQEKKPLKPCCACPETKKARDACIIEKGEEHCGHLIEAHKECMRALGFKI
UniProt Q96D53: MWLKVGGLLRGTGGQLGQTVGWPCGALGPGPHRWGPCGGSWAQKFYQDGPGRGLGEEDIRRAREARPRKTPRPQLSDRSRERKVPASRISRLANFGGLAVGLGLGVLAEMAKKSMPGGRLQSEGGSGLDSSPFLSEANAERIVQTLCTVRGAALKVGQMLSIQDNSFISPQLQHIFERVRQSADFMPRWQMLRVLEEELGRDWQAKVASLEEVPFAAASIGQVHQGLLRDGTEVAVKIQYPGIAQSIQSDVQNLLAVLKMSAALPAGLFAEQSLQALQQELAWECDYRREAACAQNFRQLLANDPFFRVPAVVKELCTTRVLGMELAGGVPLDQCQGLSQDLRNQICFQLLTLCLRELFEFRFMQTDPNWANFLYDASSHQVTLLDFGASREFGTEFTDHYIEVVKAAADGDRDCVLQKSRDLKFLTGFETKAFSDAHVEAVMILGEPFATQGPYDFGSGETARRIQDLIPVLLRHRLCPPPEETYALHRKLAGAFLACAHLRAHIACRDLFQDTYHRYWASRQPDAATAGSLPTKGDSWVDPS
UniProt Q7Z4G1, whole entry, looked up: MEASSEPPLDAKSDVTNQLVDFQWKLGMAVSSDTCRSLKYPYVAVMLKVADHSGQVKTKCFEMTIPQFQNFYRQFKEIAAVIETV
UniProt Q99807: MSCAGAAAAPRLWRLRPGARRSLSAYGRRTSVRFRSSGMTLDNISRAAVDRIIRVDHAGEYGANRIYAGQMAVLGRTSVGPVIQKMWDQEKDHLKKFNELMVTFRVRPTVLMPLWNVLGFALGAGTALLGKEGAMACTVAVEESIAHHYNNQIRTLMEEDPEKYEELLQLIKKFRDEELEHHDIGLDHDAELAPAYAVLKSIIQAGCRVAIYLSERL
UniProt Q8NHY2, whole entry, looked up: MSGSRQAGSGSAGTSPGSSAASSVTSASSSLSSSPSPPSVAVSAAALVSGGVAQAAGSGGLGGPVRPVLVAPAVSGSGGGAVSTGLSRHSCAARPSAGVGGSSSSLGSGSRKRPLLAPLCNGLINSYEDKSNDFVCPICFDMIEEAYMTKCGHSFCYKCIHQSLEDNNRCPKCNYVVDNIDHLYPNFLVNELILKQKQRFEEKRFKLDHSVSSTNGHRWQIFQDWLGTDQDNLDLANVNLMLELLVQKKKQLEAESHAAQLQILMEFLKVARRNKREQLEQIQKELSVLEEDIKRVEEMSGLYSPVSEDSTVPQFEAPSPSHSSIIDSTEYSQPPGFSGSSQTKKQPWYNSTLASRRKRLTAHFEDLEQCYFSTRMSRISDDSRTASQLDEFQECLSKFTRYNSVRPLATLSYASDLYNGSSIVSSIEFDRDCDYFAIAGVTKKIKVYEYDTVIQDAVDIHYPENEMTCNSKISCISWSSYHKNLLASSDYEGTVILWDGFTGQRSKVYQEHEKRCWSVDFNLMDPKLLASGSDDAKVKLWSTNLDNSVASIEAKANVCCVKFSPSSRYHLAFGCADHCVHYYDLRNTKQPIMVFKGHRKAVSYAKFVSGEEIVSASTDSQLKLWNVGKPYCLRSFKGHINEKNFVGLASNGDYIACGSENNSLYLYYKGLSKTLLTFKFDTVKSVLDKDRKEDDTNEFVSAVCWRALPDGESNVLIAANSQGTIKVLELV
UniProt Q6QEF8, whole entry, looked up: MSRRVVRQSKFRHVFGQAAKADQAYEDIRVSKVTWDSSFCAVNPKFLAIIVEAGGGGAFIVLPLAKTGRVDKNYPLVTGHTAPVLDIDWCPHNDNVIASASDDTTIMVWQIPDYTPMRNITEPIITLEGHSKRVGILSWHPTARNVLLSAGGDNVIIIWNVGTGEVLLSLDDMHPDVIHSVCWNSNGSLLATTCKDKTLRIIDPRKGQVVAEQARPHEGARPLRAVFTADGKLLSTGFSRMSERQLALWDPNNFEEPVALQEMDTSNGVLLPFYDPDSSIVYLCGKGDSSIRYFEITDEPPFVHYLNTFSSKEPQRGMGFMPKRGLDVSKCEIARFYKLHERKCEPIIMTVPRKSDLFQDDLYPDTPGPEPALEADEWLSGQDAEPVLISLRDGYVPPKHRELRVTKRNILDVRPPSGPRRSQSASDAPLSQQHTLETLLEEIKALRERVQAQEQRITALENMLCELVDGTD
UniProt Q9UI42: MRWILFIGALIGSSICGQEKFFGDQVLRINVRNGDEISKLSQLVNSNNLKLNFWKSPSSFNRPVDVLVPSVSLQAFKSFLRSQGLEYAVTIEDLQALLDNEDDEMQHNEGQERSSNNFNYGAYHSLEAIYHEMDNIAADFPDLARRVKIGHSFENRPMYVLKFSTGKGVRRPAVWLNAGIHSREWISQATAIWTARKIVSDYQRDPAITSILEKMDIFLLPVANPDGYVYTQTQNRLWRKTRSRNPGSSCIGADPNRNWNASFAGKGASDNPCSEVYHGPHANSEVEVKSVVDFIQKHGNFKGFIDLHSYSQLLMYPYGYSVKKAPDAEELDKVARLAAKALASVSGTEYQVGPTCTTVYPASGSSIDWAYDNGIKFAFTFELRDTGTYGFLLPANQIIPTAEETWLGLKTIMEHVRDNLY
UniProt Q9UNS2: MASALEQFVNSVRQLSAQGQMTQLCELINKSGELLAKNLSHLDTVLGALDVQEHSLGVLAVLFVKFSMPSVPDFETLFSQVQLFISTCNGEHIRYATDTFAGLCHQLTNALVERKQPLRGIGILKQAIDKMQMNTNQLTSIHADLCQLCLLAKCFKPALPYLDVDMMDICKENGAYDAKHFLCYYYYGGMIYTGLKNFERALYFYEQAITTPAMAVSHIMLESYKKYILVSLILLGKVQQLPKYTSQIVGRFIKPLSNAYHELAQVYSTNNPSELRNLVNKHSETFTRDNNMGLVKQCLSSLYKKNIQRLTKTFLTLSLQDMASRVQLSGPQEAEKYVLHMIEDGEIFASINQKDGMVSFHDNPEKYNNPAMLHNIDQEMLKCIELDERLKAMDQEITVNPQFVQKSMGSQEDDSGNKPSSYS
UniProt Q9UBF2: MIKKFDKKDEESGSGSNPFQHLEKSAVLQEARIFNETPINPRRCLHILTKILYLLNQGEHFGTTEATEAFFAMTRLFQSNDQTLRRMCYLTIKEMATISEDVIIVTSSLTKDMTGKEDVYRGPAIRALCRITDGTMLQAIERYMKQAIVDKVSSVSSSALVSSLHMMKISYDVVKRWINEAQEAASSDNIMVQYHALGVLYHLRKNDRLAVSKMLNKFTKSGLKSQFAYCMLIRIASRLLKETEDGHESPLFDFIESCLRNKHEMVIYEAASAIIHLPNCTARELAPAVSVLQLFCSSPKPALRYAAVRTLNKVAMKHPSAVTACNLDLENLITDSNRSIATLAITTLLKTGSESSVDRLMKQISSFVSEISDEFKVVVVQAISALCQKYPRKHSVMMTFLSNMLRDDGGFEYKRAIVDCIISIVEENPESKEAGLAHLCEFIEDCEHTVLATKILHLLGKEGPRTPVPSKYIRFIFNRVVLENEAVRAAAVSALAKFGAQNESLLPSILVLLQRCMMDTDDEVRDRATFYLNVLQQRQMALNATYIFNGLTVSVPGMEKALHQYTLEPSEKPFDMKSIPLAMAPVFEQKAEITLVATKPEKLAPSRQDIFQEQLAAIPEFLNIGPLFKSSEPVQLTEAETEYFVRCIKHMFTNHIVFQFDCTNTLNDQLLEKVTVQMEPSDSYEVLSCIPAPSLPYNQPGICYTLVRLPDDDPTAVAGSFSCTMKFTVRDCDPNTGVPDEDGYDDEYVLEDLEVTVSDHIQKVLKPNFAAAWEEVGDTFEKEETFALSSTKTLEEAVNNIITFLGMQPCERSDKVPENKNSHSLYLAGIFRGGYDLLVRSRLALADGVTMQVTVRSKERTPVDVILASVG
UniProt Q96I36: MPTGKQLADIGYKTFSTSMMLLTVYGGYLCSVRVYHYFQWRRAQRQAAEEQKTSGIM
UniProt P61201: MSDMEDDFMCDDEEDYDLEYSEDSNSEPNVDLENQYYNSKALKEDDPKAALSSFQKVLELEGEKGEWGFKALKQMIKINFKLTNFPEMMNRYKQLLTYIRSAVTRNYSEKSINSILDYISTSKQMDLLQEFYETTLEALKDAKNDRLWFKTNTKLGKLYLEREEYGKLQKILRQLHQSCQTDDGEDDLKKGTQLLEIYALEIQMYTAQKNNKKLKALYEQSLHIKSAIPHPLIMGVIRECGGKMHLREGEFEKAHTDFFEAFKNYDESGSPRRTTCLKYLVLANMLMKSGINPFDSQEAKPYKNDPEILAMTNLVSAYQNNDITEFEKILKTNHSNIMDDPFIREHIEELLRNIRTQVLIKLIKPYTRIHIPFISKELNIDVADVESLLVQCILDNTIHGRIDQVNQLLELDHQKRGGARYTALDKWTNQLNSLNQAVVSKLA
UniProt Q9Y6G5, whole entry, looked up: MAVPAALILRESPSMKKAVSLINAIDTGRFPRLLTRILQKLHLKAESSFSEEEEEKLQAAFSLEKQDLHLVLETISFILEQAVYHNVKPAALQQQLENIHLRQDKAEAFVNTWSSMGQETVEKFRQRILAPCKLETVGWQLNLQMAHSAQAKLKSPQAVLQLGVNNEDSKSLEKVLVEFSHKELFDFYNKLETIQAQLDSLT
UniProt Q9BU20: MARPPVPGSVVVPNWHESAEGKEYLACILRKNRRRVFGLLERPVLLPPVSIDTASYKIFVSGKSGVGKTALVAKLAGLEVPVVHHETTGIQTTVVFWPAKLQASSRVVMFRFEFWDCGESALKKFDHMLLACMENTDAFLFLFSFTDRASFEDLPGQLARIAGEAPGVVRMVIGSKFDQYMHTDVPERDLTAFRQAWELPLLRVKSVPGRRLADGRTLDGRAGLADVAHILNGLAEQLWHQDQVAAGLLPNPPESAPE
UniProt O75208: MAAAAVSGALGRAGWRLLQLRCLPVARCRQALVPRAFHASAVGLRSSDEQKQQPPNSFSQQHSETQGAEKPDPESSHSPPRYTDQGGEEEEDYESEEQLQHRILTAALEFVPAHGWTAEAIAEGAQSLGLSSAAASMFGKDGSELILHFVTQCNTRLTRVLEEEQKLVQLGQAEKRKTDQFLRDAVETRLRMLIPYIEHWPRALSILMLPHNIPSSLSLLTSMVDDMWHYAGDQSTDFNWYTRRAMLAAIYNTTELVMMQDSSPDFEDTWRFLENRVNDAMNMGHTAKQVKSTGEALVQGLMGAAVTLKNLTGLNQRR
UniProt Q5TA50: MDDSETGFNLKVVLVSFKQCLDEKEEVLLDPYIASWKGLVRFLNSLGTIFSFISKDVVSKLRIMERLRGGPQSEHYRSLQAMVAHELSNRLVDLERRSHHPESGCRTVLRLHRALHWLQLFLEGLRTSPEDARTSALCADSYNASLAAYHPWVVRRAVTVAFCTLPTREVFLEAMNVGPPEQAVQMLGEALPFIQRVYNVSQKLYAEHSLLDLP
UniProt Q86VU5: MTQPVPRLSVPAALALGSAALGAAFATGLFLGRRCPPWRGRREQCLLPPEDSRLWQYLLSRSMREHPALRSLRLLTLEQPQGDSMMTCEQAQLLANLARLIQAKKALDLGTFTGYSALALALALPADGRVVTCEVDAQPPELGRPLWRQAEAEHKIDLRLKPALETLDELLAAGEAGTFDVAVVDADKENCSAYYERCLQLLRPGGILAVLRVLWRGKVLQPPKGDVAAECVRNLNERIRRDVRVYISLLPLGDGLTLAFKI
UniProt Q96FN4: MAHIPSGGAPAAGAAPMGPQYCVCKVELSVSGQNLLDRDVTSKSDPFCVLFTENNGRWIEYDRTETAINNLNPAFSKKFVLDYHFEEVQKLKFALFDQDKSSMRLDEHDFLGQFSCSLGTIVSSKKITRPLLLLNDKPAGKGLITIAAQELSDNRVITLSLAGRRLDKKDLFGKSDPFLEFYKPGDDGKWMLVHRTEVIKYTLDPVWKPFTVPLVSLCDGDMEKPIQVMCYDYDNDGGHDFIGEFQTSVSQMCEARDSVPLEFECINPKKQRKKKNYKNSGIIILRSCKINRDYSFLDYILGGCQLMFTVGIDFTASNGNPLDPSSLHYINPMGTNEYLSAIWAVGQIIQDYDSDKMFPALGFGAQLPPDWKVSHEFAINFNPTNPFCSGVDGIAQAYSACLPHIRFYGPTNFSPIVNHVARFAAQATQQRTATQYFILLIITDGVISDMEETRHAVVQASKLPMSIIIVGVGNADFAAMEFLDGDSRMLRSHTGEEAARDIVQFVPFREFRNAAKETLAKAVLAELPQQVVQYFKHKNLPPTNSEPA

Compound in this assay: O=C1NC(=O)C(c2cnc3ccccn23)=C1c1cn2c3c(cc(F)cc13)CN(C(=O)N1CCCCC1)CC2
Kind of assay: log2 fold change, soluble protein after heating vs DMSO (PISA); higher = thermal stabilisation; K562 lysate, 10 uM; active = over 0.2 and 3.5 SD of the protein, either way, in both replicates (recomputed). The gist of the method: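 Soluble protein was defined as the supernatant remaining after 21,000xg for 90 min, following pooling of heated aliquots and adjustment to 0.5% NP-40 at 4°C. Before that, crude K562 extract at 1 mg/mL protein in PBS pH 7.4 with 1 mM MgCl2 was treated with 10 μM compound for 30 min and heated for 3 min across 48°C-58°C. Quantification used TMTpro 16plex LC-MS/MS with channel sums equalised, and values are log-two fold changes in thermal stability relative to solvent controls from duplicates.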
Regarding COL6A3 (UniProt P12111), the log2 fold change is inactive: -0.093.
To COX10 (UniProt Q12887) belongs inactive: -0.045; to COX17 (UniProt Q14061), inactive: 0.079; to COQ8B (UniProt Q96D53), inactive: 0.123.
To COMMD3-BMI1 (UniProt R4GMX3) belongs inactive: 0.026; to COMMD6 isoform 2 (UniProt Q7Z4G1), inactive: -0.048.
To COQ7 (UniProt Q99807) belongs inactive: -0.033; to COP1 (UniProt Q8NHY2), inactive: 0.029.
Consider CORO6 isoform 5 (UniProt Q6QEF8), for which the log2 fold change is inactive: -0.008.
To CPA4 (UniProt Q9UI42) belongs inactive: 0.313; to COPS3 (UniProt Q9UNS2), inactive: 0.078; to COPG2 (UniProt Q9UBF2), inactive: 0.014.
To CPEB3 (UniProt Q8NE35) belongs inactive: 0.008.
To COX14 (UniProt Q96I36) belongs inactive: -0.053; to COPS2 (UniProt P61201), inactive: 0.034.
Regarding CNOT1 (UniProt A5YKK6), the log2 fold change was inactive: -0.004.
To COMMD10 (UniProt Q9Y6G5) belongs inactive: -0.031; to CPLANE2 (UniProt Q9BU20), inactive: -0.045.
To COQ9 (UniProt O75208) belongs inactive: 0.031; to CPTP (UniProt Q5TA50), inactive: 0; to CNOT7 (UniProt H0YBT3), inactive: -0.048.
To COMTD1 (UniProt Q86VU5) belongs inactive: 0.02.
For the target CPNE2 (UniProt Q96FN4), the log2 fold change is inactive: 0.099.

The record behind these values is the supplement of paper PMC10849652.
